Experimental data reported in the supplement of paper PMC12823440, “Inhibitors supercharge kinase turnover through native proteolytic circuits” (Nature, 2025).
The other results are listed elsewhere or left out. Hit calls seldom repeat between salt and free forms of one compound.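 In K562 cells expressing nanoluciferase-fused kinases, luminescence was recorded at 4 h intervals between 2 and 18 h, normalized as percent of control with DMSO at 100% and a positive control at 0%. A significant (2 sigma) signal drop marks a time point as decreased. The authors' rule for a hit is not shown and takes in more than the number of time points.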

Sequences of proteins named here, by UniProt entry; tags and fusion partners are left off. A change or cut given only in a name is not applied to a line headed by its entry.
UniProt Q15208: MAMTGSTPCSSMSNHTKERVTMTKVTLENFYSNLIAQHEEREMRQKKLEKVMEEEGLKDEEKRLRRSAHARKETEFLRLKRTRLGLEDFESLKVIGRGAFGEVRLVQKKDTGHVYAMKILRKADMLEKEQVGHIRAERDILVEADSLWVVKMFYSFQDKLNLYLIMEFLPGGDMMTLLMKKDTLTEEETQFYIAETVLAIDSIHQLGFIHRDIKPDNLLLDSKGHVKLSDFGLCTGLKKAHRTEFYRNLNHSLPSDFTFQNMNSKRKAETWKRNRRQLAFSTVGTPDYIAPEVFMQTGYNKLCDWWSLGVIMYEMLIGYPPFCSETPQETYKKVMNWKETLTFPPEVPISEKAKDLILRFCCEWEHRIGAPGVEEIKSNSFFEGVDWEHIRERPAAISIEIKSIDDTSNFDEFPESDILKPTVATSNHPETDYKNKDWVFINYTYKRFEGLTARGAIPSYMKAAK
UniProt P42680: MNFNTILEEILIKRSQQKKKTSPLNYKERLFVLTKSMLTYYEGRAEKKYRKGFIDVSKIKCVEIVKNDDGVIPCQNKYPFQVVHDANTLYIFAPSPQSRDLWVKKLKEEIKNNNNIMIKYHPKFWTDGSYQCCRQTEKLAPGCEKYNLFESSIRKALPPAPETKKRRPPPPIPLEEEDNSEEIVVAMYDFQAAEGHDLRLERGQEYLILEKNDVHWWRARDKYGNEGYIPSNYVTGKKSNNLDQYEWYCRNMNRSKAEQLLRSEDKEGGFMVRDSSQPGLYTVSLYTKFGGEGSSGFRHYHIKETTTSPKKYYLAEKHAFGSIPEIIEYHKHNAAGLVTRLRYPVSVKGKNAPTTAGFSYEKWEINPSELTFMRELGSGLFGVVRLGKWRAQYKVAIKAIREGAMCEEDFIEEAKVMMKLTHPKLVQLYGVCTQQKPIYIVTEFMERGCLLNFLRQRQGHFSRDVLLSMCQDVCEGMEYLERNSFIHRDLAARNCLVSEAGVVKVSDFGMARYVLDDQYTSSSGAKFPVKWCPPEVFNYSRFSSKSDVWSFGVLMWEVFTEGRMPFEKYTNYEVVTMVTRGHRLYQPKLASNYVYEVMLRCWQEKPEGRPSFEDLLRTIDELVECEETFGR
UniProt P29597: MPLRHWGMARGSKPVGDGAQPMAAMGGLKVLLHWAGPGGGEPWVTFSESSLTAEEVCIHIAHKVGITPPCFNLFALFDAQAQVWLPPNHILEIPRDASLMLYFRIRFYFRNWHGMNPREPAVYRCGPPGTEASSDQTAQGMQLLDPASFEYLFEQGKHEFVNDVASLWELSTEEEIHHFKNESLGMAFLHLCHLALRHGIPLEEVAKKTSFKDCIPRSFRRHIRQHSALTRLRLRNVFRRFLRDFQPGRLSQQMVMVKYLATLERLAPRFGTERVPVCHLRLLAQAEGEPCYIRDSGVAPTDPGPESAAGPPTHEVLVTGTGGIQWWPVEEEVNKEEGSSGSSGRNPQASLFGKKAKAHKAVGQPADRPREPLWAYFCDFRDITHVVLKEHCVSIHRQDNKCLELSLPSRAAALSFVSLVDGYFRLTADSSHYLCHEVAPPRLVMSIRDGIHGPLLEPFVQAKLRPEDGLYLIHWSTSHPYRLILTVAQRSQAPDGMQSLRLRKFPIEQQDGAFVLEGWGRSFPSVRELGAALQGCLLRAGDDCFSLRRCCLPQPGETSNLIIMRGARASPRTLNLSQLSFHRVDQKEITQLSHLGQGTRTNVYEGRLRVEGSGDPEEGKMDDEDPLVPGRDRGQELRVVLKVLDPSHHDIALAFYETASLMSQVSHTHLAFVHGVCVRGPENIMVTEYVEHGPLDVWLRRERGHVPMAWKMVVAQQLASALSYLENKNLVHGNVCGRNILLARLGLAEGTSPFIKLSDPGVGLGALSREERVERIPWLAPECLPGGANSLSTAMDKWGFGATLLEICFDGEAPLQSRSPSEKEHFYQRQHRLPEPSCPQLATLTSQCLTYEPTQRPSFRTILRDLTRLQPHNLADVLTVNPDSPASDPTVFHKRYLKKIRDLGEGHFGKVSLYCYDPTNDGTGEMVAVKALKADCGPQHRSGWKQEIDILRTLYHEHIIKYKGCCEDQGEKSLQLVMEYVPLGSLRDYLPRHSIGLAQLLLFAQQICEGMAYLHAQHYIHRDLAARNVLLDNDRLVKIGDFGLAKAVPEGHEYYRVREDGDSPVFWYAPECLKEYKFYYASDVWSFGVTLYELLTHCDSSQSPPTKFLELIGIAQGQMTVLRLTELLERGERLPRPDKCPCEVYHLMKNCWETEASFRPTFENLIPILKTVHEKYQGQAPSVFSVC
UniProt Q6PHR2: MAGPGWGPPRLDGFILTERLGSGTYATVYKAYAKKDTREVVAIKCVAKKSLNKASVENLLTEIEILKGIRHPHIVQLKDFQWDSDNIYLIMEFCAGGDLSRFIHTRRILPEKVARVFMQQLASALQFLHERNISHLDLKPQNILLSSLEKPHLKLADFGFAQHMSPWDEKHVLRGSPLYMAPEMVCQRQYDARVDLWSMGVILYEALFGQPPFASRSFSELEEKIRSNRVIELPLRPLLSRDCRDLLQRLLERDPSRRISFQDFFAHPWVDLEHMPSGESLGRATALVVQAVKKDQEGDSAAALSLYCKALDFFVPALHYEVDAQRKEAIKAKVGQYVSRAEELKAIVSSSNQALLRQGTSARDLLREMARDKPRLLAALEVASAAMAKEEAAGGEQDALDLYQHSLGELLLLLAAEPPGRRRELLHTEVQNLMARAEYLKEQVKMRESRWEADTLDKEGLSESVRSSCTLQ
UniProt P07947, whole entry, looked up: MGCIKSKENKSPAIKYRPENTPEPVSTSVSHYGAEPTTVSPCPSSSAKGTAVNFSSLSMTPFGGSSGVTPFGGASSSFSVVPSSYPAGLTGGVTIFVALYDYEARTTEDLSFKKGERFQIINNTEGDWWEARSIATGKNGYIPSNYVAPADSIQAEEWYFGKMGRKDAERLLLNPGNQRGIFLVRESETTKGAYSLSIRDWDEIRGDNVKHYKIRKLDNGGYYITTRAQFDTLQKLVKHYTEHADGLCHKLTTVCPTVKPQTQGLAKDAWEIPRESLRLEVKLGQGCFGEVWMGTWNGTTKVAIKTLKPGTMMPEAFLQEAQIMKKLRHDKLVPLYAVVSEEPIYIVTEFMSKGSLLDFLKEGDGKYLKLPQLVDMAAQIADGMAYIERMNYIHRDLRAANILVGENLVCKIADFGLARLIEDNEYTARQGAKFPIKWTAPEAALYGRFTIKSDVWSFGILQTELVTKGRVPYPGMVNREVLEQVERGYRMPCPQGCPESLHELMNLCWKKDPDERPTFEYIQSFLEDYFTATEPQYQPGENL
UniProt P43403: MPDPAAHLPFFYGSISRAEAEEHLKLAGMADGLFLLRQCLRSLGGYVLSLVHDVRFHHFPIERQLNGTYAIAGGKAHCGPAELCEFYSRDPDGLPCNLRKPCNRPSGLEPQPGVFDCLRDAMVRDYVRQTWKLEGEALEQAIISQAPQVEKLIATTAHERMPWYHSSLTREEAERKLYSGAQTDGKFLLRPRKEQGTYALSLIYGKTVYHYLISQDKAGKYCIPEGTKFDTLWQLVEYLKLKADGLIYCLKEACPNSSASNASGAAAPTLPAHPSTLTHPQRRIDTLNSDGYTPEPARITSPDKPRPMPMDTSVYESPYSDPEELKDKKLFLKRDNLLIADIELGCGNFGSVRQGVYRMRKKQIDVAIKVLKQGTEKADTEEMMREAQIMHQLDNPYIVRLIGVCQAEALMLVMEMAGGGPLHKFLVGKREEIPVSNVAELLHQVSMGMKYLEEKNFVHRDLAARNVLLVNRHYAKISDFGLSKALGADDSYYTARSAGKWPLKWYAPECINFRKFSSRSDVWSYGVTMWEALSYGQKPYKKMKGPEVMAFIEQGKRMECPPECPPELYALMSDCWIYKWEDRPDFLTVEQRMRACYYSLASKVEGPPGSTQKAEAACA
UniProt P00519, whole entry: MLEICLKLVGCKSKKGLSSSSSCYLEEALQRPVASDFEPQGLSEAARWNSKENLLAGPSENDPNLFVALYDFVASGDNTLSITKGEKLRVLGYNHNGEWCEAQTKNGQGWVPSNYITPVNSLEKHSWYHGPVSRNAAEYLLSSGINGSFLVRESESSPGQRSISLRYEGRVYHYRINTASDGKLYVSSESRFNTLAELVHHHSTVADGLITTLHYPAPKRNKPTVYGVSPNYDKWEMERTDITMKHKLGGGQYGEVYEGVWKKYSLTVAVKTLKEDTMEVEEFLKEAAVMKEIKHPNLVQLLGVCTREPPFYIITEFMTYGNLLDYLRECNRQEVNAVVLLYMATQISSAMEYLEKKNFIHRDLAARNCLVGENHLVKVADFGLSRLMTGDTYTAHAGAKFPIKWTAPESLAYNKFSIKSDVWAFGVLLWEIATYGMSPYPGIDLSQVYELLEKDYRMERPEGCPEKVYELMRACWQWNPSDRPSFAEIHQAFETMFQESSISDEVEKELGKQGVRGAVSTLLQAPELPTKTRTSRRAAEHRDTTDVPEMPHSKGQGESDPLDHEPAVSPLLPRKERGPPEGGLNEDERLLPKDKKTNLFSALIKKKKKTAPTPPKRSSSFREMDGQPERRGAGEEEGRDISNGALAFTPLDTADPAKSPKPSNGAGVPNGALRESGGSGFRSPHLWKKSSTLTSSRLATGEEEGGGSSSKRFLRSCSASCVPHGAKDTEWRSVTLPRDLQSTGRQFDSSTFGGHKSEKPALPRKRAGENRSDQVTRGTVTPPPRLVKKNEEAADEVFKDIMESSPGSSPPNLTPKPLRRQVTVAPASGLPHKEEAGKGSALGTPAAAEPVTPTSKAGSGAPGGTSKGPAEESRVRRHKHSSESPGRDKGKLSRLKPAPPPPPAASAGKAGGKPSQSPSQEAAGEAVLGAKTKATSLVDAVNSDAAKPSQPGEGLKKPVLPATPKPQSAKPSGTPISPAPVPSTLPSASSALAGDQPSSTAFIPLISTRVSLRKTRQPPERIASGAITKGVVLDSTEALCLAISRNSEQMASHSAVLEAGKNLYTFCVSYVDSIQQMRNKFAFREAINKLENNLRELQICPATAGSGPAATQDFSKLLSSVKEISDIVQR
UniProt P31749: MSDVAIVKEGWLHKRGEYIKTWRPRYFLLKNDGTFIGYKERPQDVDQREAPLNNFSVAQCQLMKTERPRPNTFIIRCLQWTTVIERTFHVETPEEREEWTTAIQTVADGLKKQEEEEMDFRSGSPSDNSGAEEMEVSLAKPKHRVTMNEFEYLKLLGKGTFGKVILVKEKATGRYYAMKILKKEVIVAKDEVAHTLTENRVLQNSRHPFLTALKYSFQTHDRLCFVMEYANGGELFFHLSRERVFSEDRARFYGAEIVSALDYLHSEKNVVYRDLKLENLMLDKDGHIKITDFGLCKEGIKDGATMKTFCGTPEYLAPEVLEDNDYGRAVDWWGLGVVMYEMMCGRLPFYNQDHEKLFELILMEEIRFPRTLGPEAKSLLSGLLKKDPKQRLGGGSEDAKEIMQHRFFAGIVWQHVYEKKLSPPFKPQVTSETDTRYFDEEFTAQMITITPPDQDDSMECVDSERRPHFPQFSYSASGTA

Assays:
Details in all cases: K562; 2-18 h
[1] = molecular target: STK38 (UniProt Q15208); assay: kinase-Nluc reporter destabilization hit call (1 = scored as downregulated) (binary); higher = compound decreases kinase abundance
[2] = molecular target: SYK (UniProt P43405); assay: as above
[3] = molecular target: TEC (UniProt P42680); assay: as above
[4] = molecular target: TYK2 (UniProt P29597); assay: as above
[5] = molecular target: ULK3 (UniProt Q6PHR2); assay: as above
[6] = molecular target: YES1 (UniProt P07947); assay: as above
[7] = molecular target: ZAK (UniProt Q9NYL2); assay: as above
[8] = molecular target: ZAP70 (UniProt P43403); assay: as above
[9] = molecular target: ABL1 (UniProt P00519); assay: number of time points (of 5) at which kinase-Nluc abundance scored as decreased, DMSO-normalised (count); higher = more persistent destabilization
[10] = molecular target: AKT1 (UniProt P31749); assay: as above

SMILES | kinase-Nluc reporter destabilization hit call [1] | kinase-Nluc reporter destabilization hit call [2] | kinase-Nluc reporter destabilization hit call [3] | kinase-Nluc reporter destabilization hit call [4] | kinase-Nluc reporter destabilization hit call [5] | kinase-Nluc reporter destabilization hit call [6] | kinase-Nluc reporter destabilization hit call [7] | kinase-Nluc reporter destabilization hit call [8] | number of time points [9] | number of time points [10]
O=S(=O)(c1cccc2c(Cl)cccc12)N1CCCNCC1 (10 µM) | inactive: 0 | inactive: 0 | inactive: 0 | inactive: 0 | inactive: 0 | inactive: 0 | inactive: 0 | inactive: 0 | 0 | 0
O=C1c2cccc(O)c2C(=O)c2c(O)cccc21 [Danthron] (10 µM) | inactive: 0 | inactive: 0 | inactive: 0 | inactive: 0 | inactive: 0 | inactive: 0 | inactive: 0 | inactive: 0 | 0 | 0
C=C[C@H]1[C@H](O[C@@H]2O[C@H](CO)[C@@H](O)[C@H](O)[C@H]2O)OC=C(C(=O)OC)[C@H]1CCOC(=O)c1cc(O)c(O)c(O)c1 [Cornuside] (10 µM) | inactive: 0 | inactive: 0 | inactive: 0 | inactive: 0 | inactive: 0 | inactive: 0 | inactive: 0 | inactive: 0 | 0 | 0
C=CC(=O)N[C@H]1CCOC[C@H]1Nc1ncc2cc(-c3c(Cl)c(OC)cc(OC)c3Cl)ccc2n1 [Fisogatinib] (10 µM) | inactive: 0 | inactive: 0 | inactive: 0 | inactive: 0 | inactive: 0 | inactive: 0 | inactive: 0 | inactive: 0 | 0 | 0
COC(=O)[C@]1(C)CC[C@]2(C(=O)O[C@@H]3O[C@H](CO)[C@@H](O)[C@H](O)[C@H]3O)CC[C@]3(C)C(=CC[C@@H]4[C@@]5(C)C[C@H](O)[C@H](O[C@@H]6OC[C@@H](O[C@@H]7O[C@H](CO)[C@@H](O)[C@H](O)[C@H]7O)[C@H](O)[C@H]6O)[C@@](C)(CO)C5CC[C@]43C)[C@H]2C1 (stereo not given in full) [Esculentoside H] (10 µM) | inactive: 0 | inactive: 0 | inactive: 0 | inactive: 0 | inactive: 0 | inactive: 0 | inactive: 0 | inactive: 0 | 0 | 0
O=C1NCCSc2c1sc1ccc(O)cc21 (2.5 µM) | inactive: 0 | inactive: 0 | inactive: 0 | inactive: 0 | inactive: 0 | inactive: 0 | inactive: 0 | inactive: 0 | 0 | 0
C=CC(=O)N1CCN(c2nc(OC[C@@H]3CCCN3C)nc3c2CCN(c2cccc4cccc(C)c24)C3)C[C@@H]1CC#N (2.5 µM) | inactive: 0 | inactive: 0 | inactive: 0 | inactive: 0 | inactive: 0 | inactive: 0 | inactive: 0 | inactive: 0 | 0 | 0
C[C@H]1CNC(=O)c2cnn3ccc(nc23)N[C@H](C)c2cc(F)ccc2O1 [Repotrectinib] (2.5 µM) | inactive: 0 | inactive: 0 | inactive: 0 | inactive: 0 | inactive: 0 | inactive: 0 | inactive: 0 | inactive: 0 | 1 | 0
CC(C)(C)S(=O)(=O)c1ccc2nccc(Nc3n[nH]c4ccc(F)cc34)c2c1 (10 µM) | inactive: 0 | inactive: 0 | inactive: 0 | inactive: 0 | inactive: 0 | inactive: 0 | inactive: 0 | inactive: 0 | 0 | 0
CNCCOc1ccccc1C(C)(C)Nc1nccn(-c2cc(C(=O)NC3CC3)ccc2C)c1=O [p38α inhibitor 2] (10 µM) | inactive: 0 | inactive: 0 | inactive: 0 | inactive: 0 | inactive: 0 | inactive: 0 | inactive: 0 | inactive: 0 | 0 | 0
COc1ccc(C2CC(c3ccc(Cl)cc3)=NN2c2nc(-c3ccncc3)cs2)cc1 (stereo not given) [mTOR inhibitor-8] (10 µM) | inactive: 0 | inactive: 0 | inactive: 0 | inactive: 0 | inactive: 0 | inactive: 0 | inactive: 0 | inactive: 0 | 0 | 0
Cc1occ2c1C(=O)c1c(O)ccc(O)c1C2 (2.5 µM) | inactive: 0 | inactive: 0 | inactive: 0 | inactive: 0 | inactive: 0 | inactive: 0 | inactive: 0 | inactive: 0 | 0 | 0
C=CCN(/C=C1/C(=O)O[C@H](COC)[C@@]2(C)C1=C(O)C(=O)C1=C2[C@H](OC(C)=O)C[C@]2(C)C(=O)CC[C@@H]12)CC=C [Sonolisib] (2.5 µM) | inactive: 0 | inactive: 0 | inactive: 0 | inactive: 0 | inactive: 0 | inactive: 0 | inactive: 0 | inactive: 0 | 2 | 0
COc1ncc2cc(C(=O)Nc3cc(C(=O)NCc4cccc(Cl)c4)ccc3Cl)c(=O)[nH]c2n1 (2.5 µM) | inactive: 0 | inactive: 0 | inactive: 0 | inactive: 0 | inactive: 0 | inactive: 0 | inactive: 0 | inactive: 0 | 0 | 0
COc1cccc(Nc2ncnn3ccc(CN4CC[C@@H](N)[C@H](O)C4)c23)c1 (2.5 µM) | inactive: 0 | inactive: 0 | inactive: 0 | inactive: 0 | inactive: 0 | inactive: 0 | inactive: 0 | inactive: 0 | 3 | 0
O=c1cc(N2CCOCC2)oc2c1ccc1ccccc12 (2 µM) | inactive: 0 | inactive: 0 | inactive: 0 | inactive: 0 | inactive: 0 | inactive: 0 | inactive: 0 | inactive: 0 | 0 | 0
C[C@@H]1O[C@@H](O[C@H]2[C@H](OC(=O)[C@]34CCC(C)(C)C[C@H]3C3=CC[C@@H]5[C@@]6(C)C[C@H](O)[C@H](O[C@@H]7O[C@H](CO)[C@@H](O)[C@H](O)[C@H]7O)C(CO)(CO)[C@@H]6CC[C@@]5(C)[C@]3(C)C[C@H]4O)OC[C@H](O)[C@@H]2O)[C@H](O)[C@H](O)[C@H]1O[C@@H]1OC[C@@H](O)[C@H](O[C@@H]2OC[C@](O)(CO)[C@H]2O)[C@H]1O [Platycodin D] (10 µM) | inactive: 0 | inactive: 0 | inactive: 0 | inactive: 0 | inactive: 0 | inactive: 0 | inactive: 0 | inactive: 0 | 0 | 0
O=C1c2c(O)cc(O)cc2O[C@H](c2cc(O)c(O)c(O)c2)[C@H]1O [Dihydromyricetin] (10 µM) | inactive: 0 | inactive: 0 | inactive: 0 | inactive: 0 | inactive: 0 | inactive: 0 | inactive: 0 | inactive: 0 | 0 | 0
NC(=O)c1cccc2c(N[C@H](CN3CCC3)c3ccc(Cl)c(C(F)(F)F)c3)ncnc12 (10 µM) | inactive: 0 | inactive: 0 | inactive: 0 | inactive: 0 | inactive: 0 | inactive: 0 | inactive: 0 | inactive: 0 | 0 | 0
CC(=O)c1cc(O)ccc1O [2,5-Dihydroxyacetophenone] (10 µM) | inactive: 0 | inactive: 0 | inactive: 0 | inactive: 0 | inactive: 0 | inactive: 0 | inactive: 0 | inactive: 0 | 0 | 0
Cn1cc(-c2ccc3nnc(Sc4ccc5nn(C)cc5c4)n3n2)cn1 [c-Met inhibitor 1] (10 µM) | inactive: 0 | inactive: 0 | inactive: 0 | inactive: 0 | inactive: 0 | inactive: 0 | inactive: 0 | inactive: 0 | 0 | 0
CCn1c(-c2nonc2N)nc2c(C#CCO)ncc(OCCCN)c21 [AKT Kinase Inhibitor] (10 µM) | inactive: 0 | inactive: 0 | inactive: 0 | inactive: 0 | inactive: 0 | inactive: 0 | inactive: 0 | inactive: 0 | 0 | 0
CC(C)=C/C=C1\O[C@@H]2CC(C)=CC(=O)[C@@H]2[C@]1(C)O [Bisabolangelone] (10 µM) | inactive: 0 | inactive: 0 | inactive: 0 | inactive: 0 | inactive: 0 | inactive: 0 | inactive: 0 | inactive: 0 | 0 | 0
CC(=O)NCC(=O)N[C@@H](C)C(=O)N[C@@H](CCC(N)=O)C(=O)N[C@@H](Cc1ccccc1)C(=O)N[C@@H](CO)C(=O)N[C@@H](CCCCN)C(=O)N[C@H](C(=O)N[C@@H](C)C(=O)N[C@@H](C)C(=O)N[C@@H](CCCCN)C(=O)O)[C@@H](C)O (10 µM) | inactive: 0 | inactive: 0 | inactive: 0 | inactive: 0 | inactive: 0 | inactive: 0 | inactive: 0 | inactive: 0 | 0 | 0
COc1ccc(C(=O)c2cn(C(C)C)c3ncnc(N)c23)cc1NC(=O)Nc1ccc(Cl)cc1Cl (10 µM) | inactive: 0 | inactive: 0 | inactive: 0 | inactive: 0 | inactive: 0 | inactive: 0 | inactive: 0 | inactive: 0 | 0 | 1
COc1cc(/C=C/c2ccc(NC(=O)/C=C/c3cc(OC)c(OC)c(OC)c3)cc2)cc(OC)c1 (2.5 µM) | inactive: 0 | inactive: 0 | inactive: 0 | inactive: 0 | inactive: 0 | inactive: 0 | inactive: 0 | inactive: 0 | 0 | 0
CC[C@H](C)[C@@H]1NC(=O)[C@@H]2CCCN2C(=O)[C@@H]2CCCN2C(=O)[C@@H]2CCCN2C(=O)[C@H](CC(C)C)NC(=O)CNC(=O)CNC(=O)[C@H](Cc2ccccc2)NC1=O [Heterophyllin B] (10 µM) | inactive: 0 | inactive: 0 | inactive: 0 | inactive: 0 | inactive: 0 | inactive: 0 | inactive: 0 | inactive: 0 | 0 | 0
CCS(=O)(=O)c1ccc(Oc2cc(O[C@@H](C)CO)cc(C(=O)Nc3ccn(C)n3)c2)cn1 (10 µM) | inactive: 0 | inactive: 0 | inactive: 0 | inactive: 0 | inactive: 0 | inactive: 0 | inactive: 0 | inactive: 0 | 0 | 0

Arranged by length of the SMILES (descending): part of the list above.
SMILES | kinase-Nluc reporter destabilization hit call [1] | kinase-Nluc reporter destabilization hit call [2] | kinase-Nluc reporter destabilization hit call [3] | kinase-Nluc reporter destabilization hit call [4] | kinase-Nluc reporter destabilization hit call [5] | kinase-Nluc reporter destabilization hit call [6] | kinase-Nluc reporter destabilization hit call [7] | kinase-Nluc reporter destabilization hit call [8] | number of time points [9] | number of time points [10]
COc1cc(/C=C/c2ccc(NC(=O)/C=C/c3cc(OC)c(OC)c(OC)c3)cc2)cc(OC)c1 (2.5 µM) | inactive: 0 | inactive: 0 | inactive: 0 | inactive: 0 | inactive: 0 | inactive: 0 | inactive: 0 | inactive: 0 | 0 | 0
NC(=O)c1cccc2c(N[C@H](CN3CCC3)c3ccc(Cl)c(C(F)(F)F)c3)ncnc12 (10 µM) | inactive: 0 | inactive: 0 | inactive: 0 | inactive: 0 | inactive: 0 | inactive: 0 | inactive: 0 | inactive: 0 | 0 | 0
Cn1cc(-c2ccc3nnc(Sc4ccc5nn(C)cc5c4)n3n2)cn1 [c-Met inhibitor 1] (10 µM) | inactive: 0 | inactive: 0 | inactive: 0 | inactive: 0 | inactive: 0 | inactive: 0 | inactive: 0 | inactive: 0 | 0 | 0
